Results are given in words; binding and its absence hold for the method and conditions named. In cells and extracts the contact can be indirect. Some binding calls cover weakened binding; strength is not graded here.

This experiment addresses T1, rh-BMP4 protein (R&D Systems, Inc., USA) (human, UniProt P12644 293-408).
T1 construct: Bought protein; also called BMP protein
T1 sequence (looked up): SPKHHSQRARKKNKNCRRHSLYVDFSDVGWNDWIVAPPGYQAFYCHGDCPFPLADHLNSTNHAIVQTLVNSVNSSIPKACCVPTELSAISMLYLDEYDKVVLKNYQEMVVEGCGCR
In words: streptavidin column pull-down of rh-BMP4 on the biotinylated peptide; eluate read by SDS-PAGE and anti-BMP4 western blot. For orientation: In western blotting, separated proteins are transferred to a membrane and probed.

Consider ELIEHGGGRPAD (N-terminus modified with biotin) [biotinylated peptide (peptide of SEQ ID NO: 1 with the N-terminus modified with biotin)], for which the binding entry was “binds”.

The values above are taken from patent US8729028B2, “Noggin-derived peptide and use thereof” (Caregen Co., Ltd., priority 2009, dated 2014).
